As usually defined, the AC50 is the midpoint of the concentration-response curve, whichever way the signal moves. A lower AC50 goes with greater potency.

Molecules are shown by their SMILES. The list shows a part of the results. Shown are side measurements of this screen, not its main read-out; they come without a call. The list favours compounds with an active or inconclusive main result. Potencies come from curve fits of mixed quality, noted in brackets.

For 62 molecules, AC50 and cell number change results are on record in PubChem BioAssay AID2685 (National Center for Advancing Translational Sciences (NCATS), 2010).

This assay in a line: qHTS Assay for Lipid Storage Modulators in Drosophila S3 Cells.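 As to cell number change: cells counted by Cell Tracker Red CMTPX staining in the red channel.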 To be noted: BODIPY lipid droplet fluorescence, 18-24 h; for cell number change: measured here: cell count max response, cells fed with added oleic acid. The gist of the method:
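Drosophila S3 cells got compounds at several concentrations plus oleic acid (400 uM solution). Laser-scanning cytometry with 488 nm excitation read lipid droplets at 500-530 nm and cells at 575-640 nm. Percent activity was relative to 20 uM Triacsin C.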
For orientation: Quantitative high-throughput screening tests each substance at several concentrations.

Setting [1] is: measured here: cell number channel AC50, cells fed with added oleic acid.
Where [2] appears, read: measured here: lipid fluorescence (Fed channel) AC50, cells fed with added oleic acid.

As for `O=C(NCc1ccccn1)c1cc(-c2ccncc2)nc2ccccc12`, the AC50 is 4.61 µM [rising, single point] under setting [1] and 1.64 µM [rising, partial curve] under setting [2].

Regarding `CC1CN(Cc2nc3c(c(=O)n(C)c(=O)n3C)n2CCN2CCOCC2)CC(C)O1` (centres undefined), the cell number change was -40.2%. Further, the AC50 under setting [1] was 32.6 µM [falling, single point]. The AC50 under setting [2] was 32.6 µM [rising, single point].

On to `Cc1ccc(COc2cccc3c2CCN(Cc2ccc(F)cc2)C3=O)cc1`, for which the cell number change is -17.6%.

For `O=C(Cn1[nH]c(=O)c2ccccc2c1=O)NCC1COc2ccccc2O1` (centres undefined), the cell number change is -18.7%. Besides, the AC50 under setting [2] is 29.1 µM [falling, single point].

On to `COc1ccc(-c2nnc3n2CCCCC3)cc1OC`, for which the cell number change was 7.83%.

Consider `CCC(=O)Nc1ccc(Nc2nc(C)c([N+](=O)[O-])c(Nc3ccc(NC(=O)CC)cc3)n2)cc1`, for which the cell number change was -19.3%. In addition, the AC50 under setting [2] was 7.31 µM [falling, partial curve].

Turning to `O=C(COc1ccc(Cl)cc1[N+](=O)[O-])NC1CCCCC1`, the cell number change is 50.4%.

For the molecule `CCC(=O)NC(c1cccs1)c1ccc2cccnc2c1O` (centres undefined), the cell number change was -6.47%. In addition, the AC50 under setting [2] was 7.31 µM [falling, partial curve].

For `O=C(Cc1ccccc1)Nc1ccc(N2CCCC2)cc1`, the cell number change is 1.58%. For the same molecule, the AC50 under setting [2] was 4.61 µM [rising, full curve, poor fit].

Regarding `O=C(CCCn1c(=S)[nH]c2cc3c(cc2c1=O)OCO3)NCc1cccc(Cl)c1`, the cell number change is 8.25%. For the same molecule, the AC50 under setting [1] is 6.51 µM [rising, single point]. The AC50 under setting [2] was 20.6 µM [rising, partial curve].

For the molecule `CCNC(=S)N1CCn2c(nc3ccccc32)C1`, the cell number change was found to be 1.27%. Moreover, under setting [2], the AC50 was 0.366 µM [falling, full curve, poor fit].

Regarding `C=CCN1C(=O)c2ccc(C(=O)OCC(=O)Nc3ccccc3OC)cc2C1=O`, the cell number change is -51.3%. Under setting [1], the AC50 was 23.1 µM [falling, partial curve, poor fit].

Consider `COc1cccc(OC)c1C(=O)NC(=S)NCc1cccnc1`, for which the cell number change came to 27.4%. For the same molecule, the AC50 under setting [1] is 0.164 µM [rising, full curve, poor fit].

For the molecule `O=C(N/N=C/c1ccc2c(c1)OCO2)c1cc(-c2ccc(F)cc2)nc2ccccc12`, the cell number change turned out to be 19.6%.

For `COc1ccccc1CNC(=O)c1ccc(Cl)c(NC2=NC3CS(=O)(=O)CC3S2)c1` (centres undefined), the cell number change stood at 6.63%. Also, the AC50 under setting [1] was 0.82 µM [rising, full curve, poor fit].

With `COc1ccc(-n2c(SCC(=O)OC(C)C)nnc2-c2ccccn2)cc1`, the cell number change was -7.1%. The AC50 under setting [1] is 6.51 µM [falling, single point]. Moreover, under setting [2], the AC50 is 20.6 µM [rising, partial curve].

As to `CCC(NC(=O)C1CCCO1)c1ccccc1` (centres undefined), the cell number change came out at 12.6%. Further, the AC50 under setting [2] is 29.1 µM [rising, single point].

For `COc1ccc(OC)c(S(=O)(=O)CC(O)CS(=O)(=O)c2ccccc2)c1` (centres undefined), the cell number change amounted to 40.9%. Moreover, the AC50 under setting [1] was 29.1 µM [rising, single point]. In addition, the AC50 under setting [2] was 3.66 µM [rising, full curve, poor fit].

On to `CN(CC(=O)Nc1ccc(C(N)=O)cc1)CC(=O)Nc1ccccc1Cl`, for which the cell number change was -2.59%.

For `O=C(Oc1cccc([N+](=O)[O-])c1)c1ccc2c(=O)n3c(nc2c1)CCC3`, the cell number change is -6.37%. The AC50 under setting [2] was 29.1 µM [falling, single point].

With `O=C(O)CCc1ccc(-c2cccs2)n1NC(=O)c1ccco1`, the cell number change is -12.2%. The AC50 under setting [2] was 7.31 µM [falling, partial curve].

As for `Cc1cc(C)cc(N(CC(=O)N2CC=C(c3ccccc3)CC2)S(=O)(=O)c2c(C)noc2C)c1`, the cell number change is -14.9%.

Regarding `CC(=O)c1cccc(NC(=O)NNC(=O)c2ccc(Cl)cc2Cl)c1`, the cell number change was found to be 9.68%. For the same molecule, the AC50 under setting [2] is 14.6 µM [rising, partial curve, poor fit].

For `COc1ccc(C(c2sc3nc(C)nn3c2O)N2CCN(CCO)CC2)cc1OC` (centres undefined), the AC50 under setting [2] is 6.51 µM [falling, full curve].

With `Cc1cc(SCC#N)nc2ccccc12`, the cell number change stood at 7.07%.

With `Cc1ccc(NC(=S)Nc2cc(C(=O)O)ccc2N2CC3CC(C2)c2cccc(=O)n2C3)cc1C` (centres undefined), the cell number change was -23.2%. In addition, the AC50 under setting [1] is 0.731 µM [falling, full curve, poor fit]. For the same molecule, the AC50 under setting [2] was 0.651 µM [falling, partial curve].

For the molecule `CN(C(=S)NC(=O)c1ccc(Cl)cc1)C1CCCCC1`, under setting [2], the AC50 is 29.1 µM [rising, single point].

Turning to `O=C(COC(=O)c1ccc(O)cc1O)Nc1ccc2ccccc2c1`, the cell number change is 18.7%. Moreover, the AC50 under setting [2] was 20.6 µM [rising, single point].

As to `Cc1noc(C)c1C(=O)NCCC1=CCCCC1`, the cell number change stood at 7.14%.

For the molecule `CCN(CC)S(=O)(=O)c1ccc(OC)c(NC(=S)Nc2cc(C)ccc2C)c1`, the cell number change was -35.7%. Also, the AC50 under setting [1] was 32.6 µM [falling, single point]. In addition, the AC50 under setting [2] is 0.651 µM [falling, single point].

Regarding `CSc1n[nH]c(-c2sccc2OCc2ccc(C)cc2)n1`, the cell number change was found to be 149%. Moreover, under setting [2], the concentration at half-maximal activity (AC50) was 29.1 µM [rising, single point].

Take `COCCCNC(=O)C1CC(=O)N(CCc2ccc(F)cc2)C1` (centres undefined): the cell number change is -2.62%.

On to `O=C(CSc1ncccn1)NC(=O)Nc1ccc2c(c1)OCCO2`, for which the cell number change stood at 62.1%.

Consider `C#CCOCCOCCOCCNc1nc(N2CCN(C(=O)CCCCCCCCCCNC(=O)[C@H](CCCCN)n3cc(C[C@@H](C)CC)nn3)CC2)nc(N2CCN(C(=O)CCCCCCCCCCNC(=O)[C@@H]([C@H](C)O)n3cc(C)nn3)CC2)n1`, for which the cell number change was -88.4%. Besides, the AC50 under setting [1] is 7.31 µM [falling, partial curve].

`Cc1ccc([N+](=O)[O-])cc1NC(=S)NCCc1ccccc1`: the cell number change was -39.1%. Also, the AC50 under setting [1] is 32.6 µM [falling, single point].

On to `CCOc1ccc(OCC)c(NC(=O)C2CCCN(C(=O)c3ccc(Cl)cc3)C2)c1` (centres undefined), for which the cell number change is 16.8%. Further, the AC50 under setting [2] was 6.51 µM [falling, single point].

`COc1cc(/C=N/NC(=O)[C@H](Cc2c[nH]c3ccccc23)NC(=O)OCC(C)C)cc([N+](=O)[O-])c1O`: the cell number change was 10.3%. Further, the AC50 under setting [2] is 0.517 µM [rising, full curve].

For the molecule `COc1ccc(/C=N/NC(=S)NCc2ccccc2)cc1OC`, the AC50 under setting [1] was 6.51 µM [rising, single point].

`CCC(CC)NC(=O)c1ccc(Cl)cc1`: under setting [1], the AC50 was 0.58 µM [rising, single point].

Regarding `O=C(Cn1cc2c(n1)CCCC2)N1CCCC1`, the cell number change is -7.76%. In addition, the AC50 under setting [1] was 0.0461 µM [falling, full curve, poor fit]. Besides, under setting [2], the AC50 is 1.3 µM [falling, full curve].

Consider `COc1ccc(C)cc1NC(=O)CN(Cc1nnc(-c2ccc(Cl)cc2)o1)C1CCCC1`, for which the cell number change is 138%. Moreover, the AC50 under setting [1] was 29.1 µM [rising, partial curve]. For the same molecule, the AC50 under setting [2] was 29.1 µM [rising, single point].

`COc1ccc(Cl)cc1S(=O)(=O)NC(C)C(=O)NCc1ccccn1` (centres undefined): the cell number change was found to be 10.5%. Further, the AC50 under setting [1] was 0.0058 µM [rising, full curve, poor fit].

Regarding `COc1cccc(C(=O)NC2CC3CCCC(C2)N3S(=O)(=O)c2ccccc2)c1` (centres undefined), the AC50 under setting [2] was 0.164 µM [falling, full curve, poor fit].

As for `O=C(Nc1ccccc1C(=O)N1CCN(Cc2ccccc2)CC1)c1ccccc1`, the AC50 under setting [2] was 13 µM [rising, partial curve].

On to `CC(=O)Nc1ccc(SCC(=O)NNC(=O)CN(C)S(=O)(=O)c2ccc(C)cc2)cc1`, for which the cell number change amounted to 7.63%.

Regarding `CN(CC(=O)Nc1ccc(N2CCOCC2)cc1)C(=O)Cc1ccccc1`, the cell number change was -12.9%. Also, the AC50 under setting [2] was 7.31 µM [falling, single point].

Turning to `CCn1c(CN(C)c2ccccc2)nc2ccccc21`, the cell number change was 16.8%. In addition, the AC50 under setting [2] was 0.0326 µM [rising, full curve, poor fit].

As for `O=C(O)C(Oc1ccc2c3c(c(=O)oc2c1)CCC3)c1ccccc1` (centres undefined), the cell number change is -15.6%. For the same molecule, the AC50 under setting [2] was 29.1 µM [rising, partial curve, poor fit].

Regarding `CC(C)(C)c1cc(Cl)ccc1OCCn1ccnc1`, the cell number change is -41.8%. Besides, the AC50 under setting [1] was 16.4 µM [falling, single point].

`CC1=Nc2cccc3cccc(c23)N1C`: the cell number change is -33.3%. Also, the AC50 under setting [1] is 8.2 µM [falling, single point].

Turning to `CCc1cc(=O)oc2c(C)c(OCC(=O)NCCCN3CCOCC3)ccc12`, the cell number change was -2.83%. In addition, the AC50 under setting [2] is 29.1 µM [falling, single point].

With `CCOc1ccc2nc(SC3CC(=O)N(c4ccccc4)C3=O)sc2c1` (centres undefined), the cell number change was -0.834%. In addition, the AC50 under setting [2] is 29.1 µM [falling, single point].

Take `CCCc1ccc(-c2csc(NC(=O)C3=COCCO3)n2)cc1`: the cell number change was 2.46%. In addition, the AC50 under setting [2] was 0.0058 µM [rising, full curve, poor fit].

On to `COc1ccc(N2CCN(C(CNC(=O)OCc3ccccc3)c3ccco3)CC2)cc1` (centres undefined), for which the cell number change turned out to be 21%.

As for `Cc1ccc(CCc2nnc(SCC(=O)Nc3cc(Cl)ccc3Cl)n2-c2ccccc2)o1`, the cell number change was 8.93%. Under setting [2], the AC50 is 7.31 µM [rising, partial curve].

Consider `Cc1[nH]c(N=Nc2ccccc2)nc1N=Nc1ccccc1`, for which the cell number change is -58.5%. In addition, under setting [1], the half-maximal activity concentration (AC50) was 23.1 µM [falling, single point]. The AC50 under setting [2] was 23.1 µM [falling, single point].

Take `COc1cc2nc(Cl)nc(N3CCN(C)CC3)c2cc1OC`: the AC50 under setting [2] is 0.651 µM [rising, single point].

Regarding `COc1cccc(NC(=O)CCc2ccccc2)c1`, the cell number change is -9.64%. Also, under setting [2], the AC50 is 4.11 µM [falling, single point].

For `O=C(Nc1ccc2oc(=O)ccc2c1)c1ccco1`, the cell number change is -13.2%. Under setting [2], the AC50 is 1.84 µM [rising, partial curve].

Regarding `NC(N)=NC(=O)Cc1c(Cl)cccc1Cl`, the cell number change turned out to be 0.103%. Moreover, under setting [2], the AC50 was 1.03 µM [falling, partial curve].

Take `Cc1cc(N)n(-c2cc(C)c3ccccc3n2)n1`: the cell number change is -14.8%. The AC50 under setting [2] is 20.6 µM [rising, single point].

Consider `CCOC(=O)c1sc(NC(=O)C(CC)Sc2nnc3c4ccccc4n(CC)c3n2)nc1C` (centres undefined), for which the cell number change was -26.8%. Moreover, the AC50 under setting [2] was 8.2 µM [falling, partial curve].
